Reference: patent publication US20230174619A1 (published 2023)
No constants are given. Whether binding was seen depends on the method and setting. Some entries that bind do so weakly or less than the wild type.

The chains behind the UniProt entries cited, without tags or fusion partners. Where a name states a change or a piece, a line headed by the entry shows the natural chain unless it says otherwise. Residues count along the entry.
UniProt Q15116, residues 25-288: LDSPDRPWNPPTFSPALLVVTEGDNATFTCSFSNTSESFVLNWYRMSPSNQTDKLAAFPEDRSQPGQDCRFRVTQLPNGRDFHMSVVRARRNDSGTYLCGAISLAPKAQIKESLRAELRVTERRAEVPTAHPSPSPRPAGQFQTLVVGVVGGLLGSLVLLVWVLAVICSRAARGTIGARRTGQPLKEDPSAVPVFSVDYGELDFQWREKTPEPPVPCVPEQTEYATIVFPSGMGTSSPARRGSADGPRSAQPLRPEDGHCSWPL
UniProt Q9EP73: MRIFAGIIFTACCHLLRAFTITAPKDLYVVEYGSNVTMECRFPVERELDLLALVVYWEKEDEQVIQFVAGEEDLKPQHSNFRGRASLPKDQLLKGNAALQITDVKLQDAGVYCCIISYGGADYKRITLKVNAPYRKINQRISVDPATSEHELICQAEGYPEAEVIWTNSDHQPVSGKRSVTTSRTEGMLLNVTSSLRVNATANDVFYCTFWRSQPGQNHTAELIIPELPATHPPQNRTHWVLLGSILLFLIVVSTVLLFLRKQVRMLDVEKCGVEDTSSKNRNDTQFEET

Target: PD-1 on human T cells (CD4+ and CD8+ T cells of PBMCs from human blood donors) (human) (UniProt Q15116)
Assay: conclusion from flow cytometry of PD-1 on T cells in mixed lymphocyte reaction cultures

binding: binds
Substance: PHI258 (PD-L1 variant 258) as added to the mixed lymphocyte reaction of Example 2 (from UniProt Q9EP73 18-132) (ligand)
